Patent US20230383006A1
Results are given in words; binding and its absence hold for the method and conditions named. Some results given as binding are weak or reduced against the parent protein; the word gives no strength.

By UniProt entry, the sequences of proteins in these tests, tags left out. Where a name states a change or a piece, a line headed by the entry shows the natural chain unless it says otherwise.
UniProt P27487: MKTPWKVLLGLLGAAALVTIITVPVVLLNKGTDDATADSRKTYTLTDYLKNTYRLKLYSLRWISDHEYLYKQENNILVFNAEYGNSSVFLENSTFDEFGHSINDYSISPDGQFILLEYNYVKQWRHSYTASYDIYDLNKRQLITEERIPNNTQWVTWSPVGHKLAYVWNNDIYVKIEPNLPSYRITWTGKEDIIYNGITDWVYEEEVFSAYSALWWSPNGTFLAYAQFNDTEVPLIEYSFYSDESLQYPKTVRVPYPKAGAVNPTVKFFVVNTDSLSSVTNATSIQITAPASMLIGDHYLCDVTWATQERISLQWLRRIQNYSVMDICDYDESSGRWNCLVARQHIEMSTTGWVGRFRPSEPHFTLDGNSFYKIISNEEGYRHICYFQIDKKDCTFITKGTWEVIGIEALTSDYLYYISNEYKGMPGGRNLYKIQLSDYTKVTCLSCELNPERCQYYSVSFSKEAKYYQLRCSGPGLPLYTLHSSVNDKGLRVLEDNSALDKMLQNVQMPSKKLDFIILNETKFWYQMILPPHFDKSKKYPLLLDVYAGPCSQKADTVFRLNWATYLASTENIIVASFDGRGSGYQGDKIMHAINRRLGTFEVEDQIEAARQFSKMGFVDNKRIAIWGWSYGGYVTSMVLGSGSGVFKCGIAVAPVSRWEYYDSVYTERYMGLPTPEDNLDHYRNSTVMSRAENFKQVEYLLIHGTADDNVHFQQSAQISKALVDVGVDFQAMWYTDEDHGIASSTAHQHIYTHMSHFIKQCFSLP

Experiments:
[1] = target: human CD26 expressed on human T lymphocytes (human) (UniProt P27487); experiment: flow cytometry on human lymphocyte subpopulations
[2] = target: T1, …; experiment: CLIPS discontinuous peptide ELISA, average over all discontinuous peptides that contain the sequence
T1 sequence (peptide): DVTWATQERISLQWL

[3] = target: T2, …; experiment: as above; remark: listed apart in the source
T2 sequence (peptide): SCELNPERCQYY

[4] = target: T3, …; experiment: as above; remark: listed apart in the source
T3 sequence (peptide): DYDESSGRWNCLVAR

[5] = target: T4, …; experiment: as above; remark: listed apart in the source
T4 sequence (peptide): TTGWVGRFRPSEPHF

[6] = target: T5, …; experiment: as above; remark: listed apart in the source
T5 sequence (peptide): DYLYYISNE

SGPGLP = target: T6, SGPGLP; experiment: as above
T6 sequence (peptide): SGPGLP

[7] = target: T7, …; experiment: as above; remark: listed apart in the source
T7 sequence (peptide): TFITKGTWEVIG

[8] = target: human CD26 expressed on human T lymphocytes (human) (UniProt P27487); experiment: multiparametric flow cytometry on lymphocytes from human peripheral blood, CD3 (FL1-H) against CD26/CDina26 (FL2-H)
[9] = target: Human Antigen (purchased from Sigma CAT #D4943) (human) (UniProt P27487); experiment: Biacore, CDina26 captured by an immobilized polyclonal anti-mouse Ig antibody, Human Ag injected in solution at two concentrations

binding [1]: binds | binding [2]: binds | binding [3]: binds | binding [4]: binds | binding [5]: binds | binding [6]: binds | binding (SGPGLP): binds | binding [7]: binds | binding [8]: binds | binding [9]: binds
B1: CDina26 (antibody, mouse IgG2b, kappa, V domains shown)
VH: QVQLQQSGAELVKPGASVKLSCKASGYTFRSYDINWVRQRPEQGLEWIGWIFPGDGSTKYNEKFKGKATLTTDKSSSTAYMQLSRLTSEDSAVYFCARWTVVGPGYFDVWGAGTTVTVSS
VL: QIVLTQSPAIMSASPGEKVTITCSASSSVSYMNWFQQKPGTSPKLWIYSTSNLASGVPARFSGSGSGTSYSLTISRMEAEDAATYYCQQRSSYPNTFGGGTKLEIKR
